Experimental data published in patent US12618847B2 (Purdue Research Foundation, priority 2020, dated 2026).
Part of at least one peptide drawing is inferred or uncertain, most often the ends.

Protein sequences, listed by entry. Tags and fused reporters are not part of them. Lines headed by an entry give the natural chain unless they say otherwise; changes in a name come on top.
UniProt P20618: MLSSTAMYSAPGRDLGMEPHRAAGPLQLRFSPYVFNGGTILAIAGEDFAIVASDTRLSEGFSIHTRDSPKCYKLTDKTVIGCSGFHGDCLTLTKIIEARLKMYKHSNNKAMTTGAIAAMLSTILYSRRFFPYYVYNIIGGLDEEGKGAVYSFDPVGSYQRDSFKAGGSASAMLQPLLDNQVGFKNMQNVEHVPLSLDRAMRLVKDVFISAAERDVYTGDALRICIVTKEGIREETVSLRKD
UniProt P28074: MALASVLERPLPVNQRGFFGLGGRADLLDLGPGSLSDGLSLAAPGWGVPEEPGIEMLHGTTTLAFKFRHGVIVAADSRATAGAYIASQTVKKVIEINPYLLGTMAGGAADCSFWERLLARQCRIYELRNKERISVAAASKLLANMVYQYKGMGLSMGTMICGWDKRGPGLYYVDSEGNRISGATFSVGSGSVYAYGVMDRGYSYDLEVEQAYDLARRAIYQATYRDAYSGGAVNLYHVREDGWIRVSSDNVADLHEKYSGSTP

Biological target: 20S CP (Homo sapiens, UniProt P20618+P28074)
Assay: Fluorescence hydrolysis of probes by purified 20S CP (plate reader)
Type: biochemical
Method: The peptide recognition sequence used was based on the commercially available 4-mer AMC probe (FIG. 1A), specifically Leu-Leu-Val-Tyr (SEQ ID NO: 1), to generate TAS1 (FIG. 1B). To determine if TAS1 had any enhanced sensitivity, the two probes were compared under the same conditions with purified 20S CP. Briefly, the probes were incubated in triplicate at 10 and 30 μM with 9 nM […] at 37° C. The change in fluorescence was monitored for two hours and the endpoint values were averaged and graphed for comparison (FIG. 1C). Because the two fluorophores have different excitation and emission wavelengths, the two experiments were performed separately but using the same conditions for the plate reader (i.e. gain, number of flashes, settling time, etc.). […] Since, unlike Suc-LLVY-AMC (SEQ ID NO: 1), TAS1 has the potential to have more than one cleavage site which could result in an increase in fluorescence (on either side of Rh110), we confirmed that the increase in signal is only from the recognition and cleavage of the peptide at the Tyr moiety by analyzing the 30 μM TAS1 samples by LC/MS (FIG. 2).
With these new peptide sequences in hand, we returned to incorporating the Rh110-peptoid moiety and to compare the cleavage of TAS1-3 with the 20S CP. We incubated all three probes at various concentrations with 9 nM 20S CP and monitored the change in fluorescence using a microplate reader. […] In order to compare the three probes, we fit a linear regression for the points from 10-60 min for 30 μM of each probe to obtain a rate for the change in fluorescence (Table 1). Of the three, TAS1 was hydrolyzed the quickest, although the slope for TAS2 was similar. […] To confirm that the change in fluorescence was due to amide bond cleavage at the expected site on the peptide, we analyzed the samples at a concentration of 30 μM by LC/MS (FIG. 3).

Compound: COCCCN(CC(=O)N(CCCN(C)C)CC(N)=O)C(=O)CN(CCCN(C)C)C(=O)CNC(=O)CCC(=O)Nc1ccc2c(c1)Oc1cc(NC(=O)[C@H](Cc3ccc(O)cc3)NC(=O)[C@@H](NC(=O)[C@H](CC(C)C)NC(=O)[C@@H](N)CC(C)C)C(C)C)ccc1C21OC(=O)c2ccccc21 (stereo partly drawn) [TAS1]
- Rate of Hydrolysis (30 μM probe, 9 nM purified 20S CP, linear regression 10-60 min): 83.2 ΔRFU/min
- Cleavage products after incubation with 20S CP (LC/MS) (30 μM probe, LC/MS): the only new peaks formed after incubating with purified 20S CP were the expected cleavage products
- Fluorescence signal compared with Suc-LLVY-AMC (10 and 30 μM probe, 9 nM 20S CP, 37° C., two hours endpoint): more than an order of magnitude
